Measured values from PubChem BioAssay AID1487 (National Center for Advancing Translational Sciences (NCATS), 2009).
This is one part of the list. Further columns of the screen follow, without active or inactive calls. Most of these compounds were active or inconclusive in the main read-out, so they are no random draw. The note in brackets gives the kind of curve behind each potency; many fits are weak.

Experiment: qHTS Assay for Modulators of Lamin A Splicing
Conditions: HeLa LMNA splicing GFP/RFP minigene ratio, 48 h
Outline: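 Read-out is the ratio of GFP to DsRed2 object intensity, acquired by 488 nm laser-scanning cytometry on HeLa lamin A-EGFP minigene reporter cells. Compound incubation 48 hrs at 37 °C in Opti-MEM with 2% FBS; DMSO 0.5% final.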

[1] = measured here: RFP viability control channel
[2] = measured here: GFP splicing reporter channel

| Structure (SMILES) | AC50 [1] | AC50 [2] |
| --- | --- | --- |
| CCOC(=O)c1c(C)c(C(=O)Nc2ccc(N(C)C)cc2)c(C)n1CC | 22.4 µM [rising, single point] |  |
| Cc1ccc(C)c(NC(=S)N/N=C/C(C)c2ccccc2)c1 (stereo not given) |  | 10 µM [rising, partial curve, poor fit] |
| O=[N+]([O-])c1ccc(N/N=C/c2sc(N3CCOCC3)nc2-c2ccccc2)c(S(=O)(=O)Nc2ccc(Cl)cc2)c1 | 12.6 µM [falling, partial curve, poor fit] | 11.2 µM [falling, partial curve] |
| Cc1ccc2nc(/C(C#N)=C\c3ccc([N+](=O)[O-])o3)[nH]c2c1 | 5.62 µM [falling, single point] | 5.62 µM [falling, single point] |
| O=C(NC(=S)NCC1CCCO1)c1ccccc1 (stereo not given) |  | 0.178 µM [falling, full curve, poor fit] |
| COc1ccc(-c2nnc(SCc3csc(N)n3)n2C)cc1 | 3.98 µM [rising, partial curve, poor fit] |  |
| Fc1ccc(CSc2nc3ccccc3[nH]2)cc1 | 31.6 µM [rising, single point] |  |
| CC(C)Cn1c(-c2ccc(Br)o2)n[nH]c1=S | 0.00355 µM [falling, full curve, poor fit] |  |
| NC(N)=NCCN1CCCCCCC1 | 1.41 µM [rising, single point] | 1.41 µM [rising, full curve] |
| CCC(c1nnnn1CCc1ccccc1)N(Cc1ccco1)Cc1cc2c(C)ccc(C)c2[nH]c1=O (stereo not given) |  | 1.41 µM [rising, full curve, poor fit] |
| c1cnc(N2CCN(Cc3c[nH]c4ccccc34)CC2)nc1 | 15.8 µM [falling, single point] |  |
| O=c1c(-c2ccc(Cl)cc2)nc2cnc(N3CCOCC3)nc2n1Cc1ccc(F)cc1 | 17.8 µM [falling, partial curve, poor fit] | 11.2 µM [falling, partial curve, poor fit] |
| CCOc1ccc(NC(=O)Cn2c(=O)n(CC3CCCO3)c(=O)c3ccccc32)cc1 (stereo not given) | 2.82 µM [rising, full curve, poor fit] | 6.31 µM [rising, partial curve, poor fit] |
| O=C(CSc1ncc(C(F)(F)F)cc1Cl)N1CCN(S(=O)(=O)c2ccccc2)CC1 |  | 0.0794 µM [rising, full curve, poor fit] |
| COc1c(C(=O)Nc2ccc(Cc3ccncc3)cc2)ccc2ccccc12 | 11.2 µM [rising, partial curve] | 11.2 µM [rising, partial curve] |
| O=C(NCc1cccnc1)C(=O)NCC(c1cccnc1)N1CCN(c2ccccc2)CC1 (stereo not given) | 35.5 µM [rising, single point] |  |
| CCN(CC)S(=O)(=O)c1cc(C(=O)N(C)CC(=O)Nc2ccc(Cl)cc2)ccc1Cl | 10 µM [rising, partial curve] | 12.6 µM [rising, partial curve] |
| CCCn1c(=O)c2ccccc2n2c(SCC(=O)c3ccc(CC)cc3)nnc12 | 2.82 µM [falling, partial curve] |  |
| c1ccc(Oc2cccc(OCCCCSc3ncccn3)c2)cc1 | 5.01 µM [falling, single point] | 3.55 µM [falling, full curve, poor fit] |
| COc1ccc2cc(C(=O)NCc3ccc4c(c3)CCN4C(=O)c3ccc(C)cc3)[nH]c2c1 |  | 0.112 µM [falling, partial curve, poor fit] |
| Cc1ccc(NC(=O)C(OC(=O)c2ccccc2Cl)c2ccccc2)cc1Cl (stereo not given) | 15.8 µM [rising, single point] |  |
| Nc1nc(SCC(=O)Nc2ccc3c(c2)CCC3)n[nH]1 | 12.6 µM [rising, single point] | 10 µM [rising, partial curve] |
| O=C(CCNc1ccc(Cc2ccncc2)cc1)c1cccc([N+](=O)[O-])c1 | 35.5 µM [falling, single point] |  |
| CCNc1nc(NCC)nc(N/N=C/c2ccc(Br)cc2)n1 | 3.55 µM [falling, partial curve, poor fit] | 31.6 µM [falling, partial curve] |
| CC1CCCCN1S(=O)(=O)c1ccc(S(=O)(=O)N(CC(=O)Nc2ccccc2)Cc2cccs2)cc1 (stereo not given) | 15.8 µM [rising, partial curve] | 17.8 µM [rising, partial curve, poor fit] |
| Cc1cc(=O)[nH]c(N/N=C/c2ccccc2C(F)(F)F)n1 |  | 7.08 µM [rising, partial curve, poor fit] |
| Cc1ccc(NC2=Nc3ccccc3CS2)cc1 | 5.01 µM [falling, single point] |  |

| Structure (SMILES) | AC50 [1] | AC50 [2] |
| --- | --- | --- |
| C/C=C/Cn1c(SCCCc2ccccc2)nc2c1c(=O)[nH]c(=O)n2C | 35.5 µM [rising, single point] | 31.6 µM [rising, single point] |
| C(=N\n1cnnc1)/c1ccc(OCc2cccc3ccccc23)cc1 | 31.6 µM [rising, single point] | 25.1 µM [rising, single point] |
| CC1(C)CC(=O)C(C2=NC(C)(C)Cc3ccccc32)=C(O)C1 | 5.62 µM [rising, partial curve] |  |
| COC(=O)c1ccccc1NC(=O)c1cn(-c2ccc(C)c(C)c2)c(=O)c2ccccc12 | 22.4 µM [rising, single point] |  |
| O=C1C2C3c4ccccc4C(c4ccccc43)C2C(=O)N1c1ccncc1 (stereo not given) | 11.2 µM [falling, partial curve, poor fit] | 11.2 µM [falling, partial curve] |
| Cc1cccc(C2c3[nH]c4ccccc4c3CCN2C(=O)c2cc3c([nH]c2=O)CCCC3)n1 (stereo not given) |  | 0.0141 µM [falling, full curve] |
| Cc1cccc(-c2nnc(SCC#N)n2C)c1 | 0.282 µM [falling, full curve] |  |
| COc1ccc(-c2[nH]ncc2CNCCCSC)cc1F |  | 0.158 µM [rising, full curve, poor fit] |
| Cc1cc(C)c(C)c(S(=O)(=O)N2CCN(CC(=O)Nc3sccc3C#N)CC2)c1C | 22.4 µM [rising, single point] |  |
| CCc1cc2c(NCc3ccco3)ncnc2s1 | 22.4 µM [falling, partial curve, poor fit] |  |
| Cc1cc(C(=O)N=Nc2c(O)n(C(C)C)c3ccccc23)n[nH]1 | 0.00501 µM [rising, full curve, poor fit] |  |
| Cn1cnnc1SCc1ccc(-c2ccc(Br)cc2)o1 | 17.8 µM [rising, partial curve, poor fit] | 1.78 µM [rising, full curve, poor fit] |
| O=C(CSc1ccc(Cl)cc1)N1CCN(c2ncc(C(F)(F)F)cc2Cl)CC1 | 15.8 µM [rising, single point] |  |
| CCOC(=O)c1c(NC(=O)c2ccc(S(=O)(=O)N3CCCC(C)C3)cc2)sc2c1CCN(C(C)C)C2 (stereo not given) | 11.2 µM [falling, partial curve] |  |
| Nc1ccccc1Sc1nc2ccccc2[nH]1 |  | 10 µM [falling, partial curve, poor fit] |
| Cc1ccc(C)c2[nH]c(=O)c(CN(Cc3cccs3)C(=S)NCc3ccco3)cc12 | 12.6 µM [rising, partial curve, poor fit] |  |
| CC(C)(C)C(=O)Nc1ccc(C(=O)N/N=C/c2ccccc2OC(=O)c2ccc(Cl)cc2)cc1 | 11.2 µM [rising, partial curve] |  |
| CCOC(=O)c1cc(-c2ccccc2)n(-c2cccc(C(=O)N(CC)c3ccccc3)c2)c1C | 17.8 µM [rising, partial curve] | 22.4 µM [rising, partial curve, poor fit] |
| COc1ccc(CNC(=O)C2CCCN2S(=O)(=O)c2ccc(C)cc2)cc1 (stereo not given) | 15.8 µM [rising, single point] | 12.6 µM [rising, single point] |
| COc1cc(CNCCN2CCOCC2)ccc1OCc1c(Cl)cccc1Cl | 20 µM [rising, single point] | 12.6 µM [rising, single point] |
| CCOc1ccc(Br)cc1CSC(=N)N | 11.2 µM [rising, partial curve] | 14.1 µM [rising, partial curve] |
| O=C(CCC(=O)NNC(=O)COc1ccc(Br)cc1Br)NCc1ccccc1 | 35.5 µM [falling, single point] | 35.5 µM [falling, single point] |
| c1cc2c(cn1)cnc1cscc12 |  | 6.31 µM [rising, partial curve, poor fit] |
| O=C(Nc1nnc(-c2cccnc2)o1)c1cccc(Cl)c1 | 17.8 µM [falling, single point] |  |
| COc1cc(S(=O)(=O)N2CCC(c3nc4ccccc4s3)CC2)ccc1S(=O)(=O)NC1CCCC1 | 12.6 µM [rising, partial curve] |  |
| C=CCN(c1ccccc1)S(=O)(=O)c1cccc(C(=O)Nc2nnc(SCC)s2)c1 | 20 µM [rising, single point] | 14.1 µM [rising, single point] |
| COc1cc(-c2nnc(SCC(=O)c3ccccc3)o2)cc(OC)c1OC | 12.6 µM [rising, partial curve] |  |

Molecules above that have a cyano group (3):

| Structure (SMILES) | AC50 [1] | AC50 [2] |
| --- | --- | --- |
| Cc1ccc2nc(/C(C#N)=C\c3ccc([N+](=O)[O-])o3)[nH]c2c1 | 5.62 µM [falling, single point] | 5.62 µM [falling, single point] |
| Cc1cccc(-c2nnc(SCC#N)n2C)c1 | 0.282 µM [falling, full curve] |  |
| Cc1cc(C)c(C)c(S(=O)(=O)N2CCN(CC(=O)Nc3sccc3C#N)CC2)c1C | 22.4 µM [rising, single point] |  |
